In ChEMBL document CHEMBL5674883, “The Heterochromatin Landscape in Migrating Cells and the Importance of H3K27me3 for Associated Transcriptome Alterations” (Cells, 2018) one finds log2FC data, which are given here for two compounds.

The chains behind the UniProt entries cited, without tags or fusion partners.
UniProt Q61188, whole entry: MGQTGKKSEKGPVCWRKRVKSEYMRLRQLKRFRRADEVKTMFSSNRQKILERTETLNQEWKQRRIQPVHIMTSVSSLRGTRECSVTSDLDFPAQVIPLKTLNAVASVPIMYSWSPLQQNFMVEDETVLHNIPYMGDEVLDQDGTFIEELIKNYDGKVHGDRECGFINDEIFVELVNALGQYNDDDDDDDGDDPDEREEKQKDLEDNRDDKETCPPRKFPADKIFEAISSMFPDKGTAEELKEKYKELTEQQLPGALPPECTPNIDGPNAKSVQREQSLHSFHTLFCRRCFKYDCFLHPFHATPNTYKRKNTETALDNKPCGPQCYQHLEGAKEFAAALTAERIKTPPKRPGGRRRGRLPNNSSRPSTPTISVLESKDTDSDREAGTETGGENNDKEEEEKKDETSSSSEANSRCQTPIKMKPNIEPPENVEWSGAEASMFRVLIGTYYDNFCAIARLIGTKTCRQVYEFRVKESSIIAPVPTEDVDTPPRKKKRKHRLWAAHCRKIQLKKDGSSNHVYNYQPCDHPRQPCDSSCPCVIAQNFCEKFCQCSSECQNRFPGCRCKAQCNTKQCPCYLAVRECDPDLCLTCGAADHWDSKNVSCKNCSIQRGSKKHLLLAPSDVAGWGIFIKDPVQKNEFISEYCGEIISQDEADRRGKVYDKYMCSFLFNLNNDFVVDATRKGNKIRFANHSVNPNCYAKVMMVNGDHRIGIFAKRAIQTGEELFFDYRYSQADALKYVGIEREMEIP

Type in all cases: cell-based
The target in experiment [1] is T1, RNA polymerase II (Mus musculus) (UniProt P08775+Q8CFI7+P97760+A0A3Q4L2S8+Q80UW8+P61219+P62488+Q923G2+P60898+O08740+Q63871+P62876). In words: Inhibition of RNA polymerase II in mouse B16-F1 migrating cells assessed as fold change in Phospho1-RNA stability at 0.1 mM measured by ChIP-seq analysis relative to control cells.
Experiment [2] addresses T1, RNA polymerase II (Mus musculus). In words: Inhibition of RNA polymerase II in mouse B16-F1 migrating cells assessed as fold change in Arhgap18-RNA stability at 0.1 mM measured by ChIP-seq analysis relative to control cells.
Experiment [3] has the same target. In words: Inhibition of RNA polymerase II in mouse B16-F1 migrating cells assessed as fold change in Rrm2b-RNA stability at 0.1 mM measured by ChIP-seq analysis relative to control cells.
The target is the same in experiment [4]. In words: Inhibition of RNA polymerase II in mouse B16-F1 migrating cells assessed as fold change in Coa3-RNA stability at 0.1 mM measured by ChIP-seq analysis relative to control cells.
Experiment [5] has the same target. In words: Inhibition of RNA polymerase II in mouse B16-F1 migrating cells assessed as fold change in Acsl3-RNA stability at 0.1 mM measured by ChIP-seq analysis relative to control cells.
For experiment [6] the target is unchanged. In words: Inhibition of RNA polymerase II in mouse B16-F1 migrating cells assessed as fold change in Mrps34-RNA stability at 0.1 mM measured by ChIP-seq analysis relative to control cells.
For experiment [7] the target is unchanged. In words: Inhibition of RNA polymerase II in mouse B16-F1 migrating cells assessed as fold change in Atp5d-RNA stability at 0.1 mM measured by ChIP-seq analysis relative to control cells.
Experiment [8] shares this target. In words: Inhibition of RNA polymerase II in mouse B16-F1 migrating cells assessed as fold change in Zfp266-RNA stability at 0.1 mM measured by ChIP-seq analysis relative to control cells.
Experiment [9] shares this target. In words: Inhibition of RNA polymerase II in mouse B16-F1 migrating cells assessed as fold change in Selenof-RNA stability at 0.1 mM measured by ChIP-seq analysis relative to control cells.
For experiment [10] the target is unchanged. In words: Inhibition of RNA polymerase II in mouse B16-F1 migrating cells assessed as fold change in Csnk2b-RNA stability at 0.1 mM measured by ChIP-seq analysis relative to control cells.
Experiment [11] has the same target. In words: Inhibition of RNA polymerase II in mouse B16-F1 migrating cells assessed as fold change in Postn-RNA stability at 0.1 mM measured by ChIP-seq analysis relative to control cells.
For experiment [12] the target is unchanged. In words: Inhibition of RNA polymerase II in mouse B16-F1 migrating cells assessed as fold change in Tmem97-RNA stability at 0.1 mM measured by ChIP-seq analysis relative to control cells.
Experiment [13] has the same target. In words: Inhibition of RNA polymerase II in mouse B16-F1 migrating cells assessed as fold change in Polr2j-RNA stability at 0.1 mM measured by ChIP-seq analysis relative to control cells.
The target is the same in experiment [14]. In words: Inhibition of RNA polymerase II in mouse B16-F1 migrating cells assessed as fold change in Klhl42-RNA stability at 0.1 mM measured by ChIP-seq analysis relative to control cells.
The target is the same in experiment [15]. In words: Inhibition of RNA polymerase II in mouse B16-F1 migrating cells assessed as fold change in Cpne4-RNA stability at 0.1 mM measured by ChIP-seq analysis relative to control cells.
The target is the same in experiment [16]. In words: Inhibition of RNA polymerase II in mouse B16-F1 migrating cells assessed as fold change in Plcb4-RNA stability at 0.1 mM measured by ChIP-seq analysis relative to control cells.
The target is the same in experiment [17]. In words: Inhibition of RNA polymerase II in mouse B16-F1 migrating cells assessed as fold change in Nemf-RNA stability at 0.1 mM measured by ChIP-seq analysis relative to control cells.
Experiment [18] has the same target. In words: Inhibition of RNA polymerase II in mouse B16-F1 migrating cells assessed as fold change in Tmem192-RNA stability at 0.1 mM measured by ChIP-seq analysis relative to control cells.
Experiment [19] shares this target. In words: Inhibition of RNA polymerase II in mouse B16-F1 migrating cells assessed as fold change in Ap2s1-RNA stability at 0.1 mM measured by ChIP-seq analysis relative to control cells.
The target of experiment [20] is Histone-lysine N-methyltransferase EZH2 (Mus musculus) (UniProt Q61188). In words: Inhibition of EZH2 in mouse B16-F1 migrating cells assessed as fold change in H3K27me3-buffered regulated Ifit2-mRNA expression at 3 uM measured by ChIP-seq analysis relative to control cells.
Experiment [21] has the same target. In words: Inhibition of EZH2 in mouse B16-F1 migrating cells assessed as fold change in H3K27me3-buffered regulated G2e3-mRNA expression at 3 uM measured by ChIP-seq analysis relative to control cells.
For experiment [22] the target is unchanged. In words: Inhibition of EZH2 in mouse B16-F1 migrating cells assessed as fold change in H3K27me3-buffered regulated Slc24a4-mRNA expression at 3 uM measured by ChIP-seq analysis relative to control cells.
Experiment [23] has the same target. In words: Inhibition of EZH2 in mouse B16-F1 migrating cells assessed as fold change in H3K27me3-buffered regulated Mboat2-mRNA expression at 3 uM measured by ChIP-seq analysis relative to control cells.
Experiment [24] shares this target. In words: Inhibition of EZH2 in mouse B16-F1 migrating cells assessed as fold change in H3K27me3-dependent regulated Pim1-mRNA expression at 3 uM measured by ChIP-seq analysis relative to control cells.
The target is the same in experiment [25]. In words: Inhibition of EZH2 in mouse B16-F1 migrating cells assessed as fold change in H3K27me3-buffered regulated Fignl2-mRNA expression at 3 uM measured by ChIP-seq analysis relative to control cells.
Experiment [26] shares this target. In words: Inhibition of EZH2 in mouse B16-F1 migrating cells assessed as fold change in H3K27me3-independent regulated Myo1e-mRNA expression at 3 uM measured by ChIP-seq analysis relative to control cells.
The target is the same in experiment [27]. In words: Inhibition of EZH2 in mouse B16-F1 migrating cells assessed as fold change in H3K27me3-buffered regulated Rgs10-mRNA expression at 3 uM measured by ChIP-seq analysis relative to control cells.
Experiment [28] has the same target. In words: Inhibition of EZH2 in mouse B16-F1 migrating cells assessed as fold change in H3K27me3-buffered regulated Adgrg3-mRNA expression at 3 uM measured by ChIP-seq analysis relative to control cells.
Experiment [29] shares this target. In words: Inhibition of EZH2 in mouse B16-F1 migrating cells assessed as fold change in H3K27me3-buffered regulated Hlf-mRNA expression at 3 uM measured by ChIP-seq analysis relative to control cells.
For experiment [30] the target is unchanged. In words: Inhibition of EZH2 in mouse B16-F1 migrating cells assessed as fold change in H3K27me3-buffered regulated Mex3b-mRNA expression at 3 uM measured by ChIP-seq analysis relative to control cells.

Further values from the same series stand in other lists.

With `OC[C@H]1O[C@@H](n2cnc3cc(Cl)c(Cl)cc32)[C@H](O)[C@@H]1O`, the log2FC in experiment [1] is 0.91; in experiment [2] it was -0.5; in experiment [3], -0.59; in [4] it was 0.44; in [5], -0.51; in [6], 0.54. Further, the log2FC is 0.56 in experiment [7]; -0.68 in experiment [8]; -0.75 in experiment [9]; 0.39 in experiment [10]; -0.89 in [11]; 0.52 in experiment [12]. In addition, the log2FC in experiment [13] was 0.45; in experiment [14] it was -0.72; in [15] it was -0.55; in experiment [16], -0.46; in experiment [17], -0.79; in experiment [18], 0.44. For the same compound, in experiment [19], the log2FC worked out at 0.54.
Regarding `CCCc1cc(C)[nH]c(=O)c1CNC(=O)c1cc(-c2ccnc(N3CCN(C)CC3)c2)cc2c1cnn2C(C)C`, the log2FC was -0.66 in [20]; -0.42 in [21]; 0.56 in experiment [22]; 0.39 in experiment [23]; -0.39 in experiment [24]; -0.58 in experiment [25]. The log2FC in experiment [26] was 0.5; in [27], 0.47; in experiment [28] it was 1.64; in [29], 0.74; in experiment [30], -0.98.
